PubChem BioAssay AID1259308 | NCATS – 2017
In all, the deposit lists about 59,000 reagents; below is a random part of them. About 1,510 of all reagents (2.6%) count as active. 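Calls use total luciferase alone and ignore viability, so some active siRNAs may act by altering cell number.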 The numbers tell different reagents against one gene apart. Not all columns of the deposit are shown.

Test: 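Knock-downs that increase output of a recombinant reporter protein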 (primary screen)
Cells: human HEK293 embryonic kidney cells stably expressing firefly luciferase (HEK-CMV-Luc2-Hygro)
Reagents: single siRNA against human genes, 0.8 pmol siRNA per well
Timing: 72 h
Measurement: 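Reporter luminescence and viable-cell signal on separate replicate plates, given as percent of non-targeting control and median/MAD z-scores, plus per-cell luciferase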
Reading the numbers: total luciferase, z-score: higher = more reporter protein produced
Call rule: 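Active when the median/MAD z-score for overall luciferase is greater than 3; a gene was taken forward for validation with new siRNAs if at least two of its three siRNAs passed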
Meaning of the calls: active = raised luciferase; inactive = no rise

total luciferase, z-score, by gene and reagent
ZNF525 (zinc finger protein 525): #1 0.864 inactive; #2 4.37 active; #3 0.358 inactive
ABCC8 (ATP binding cassette subfamily C member 8): #1 -0.206 inactive; #2 1 inactive; #3 0.456 inactive
CYBRD1 (cytochrome b reductase 1): #1 0.76 inactive; #2 -0.068 inactive; #3 -1.33 inactive
SLC16A8: #1 3.13 active; #2 1.18 inactive; #3 0.846 inactive
ZNF8 (zinc finger protein 8): #1 0.471 inactive; #2 0.911 inactive; #3 0.293 inactive
CCDC88C (coiled-coil and HOOK domain protein 88C): #1 -0.871 inactive; #2 -1.07 inactive; #3 0.0568 inactive
LRG1 (leucine rich alpha-2-glycoprotein 1): #1 4.68 active; #2 -0.876 inactive; #3 -0.604 inactive
FASTK (Fas activated serine/threonine kinase): #1 -0.739 inactive; #2 2.76 inactive; #3 -0.0611 inactive
PLXNB3 (plexin B3): #1 4.24 active; #2 0.447 inactive; #3 1.52 inactive
CD24 (CD24 molecule): #1 -1.22 inactive; #2 -0.464 inactive; #3 -2.09 inactive
SPATA41 (spermatogenesis associated 41): #1 -0.734 inactive; #2 -0.206 inactive; #3 -1.18 inactive
GOLGA2P5 (GOLGA2 pseudogene 5): #1 -1.11 inactive; #2 2.96 inactive; #3 1.13 inactive
HSPD1 (heat shock protein family D (Hsp60) member 1): #1 -1.16 inactive; #2 -0.255 inactive; #3 -0.705 inactive
FBXO21 (F-box protein 21): #1 0.181 inactive; #2 -0.343 inactive; #3 -0.0979 inactive
SLC60A1: #1 1.22 inactive; #2 -0.746 inactive; #3 -0.21 inactive
GJB2 (gap junction protein beta 2): #1 0.282 inactive; #2 -0.311 inactive; #3 -0.116 inactive
GSTCD (glutathione S-transferase C-terminal domain containing): #1 1.07 inactive; #2 -0.44 inactive; #3 1.32 inactive
YTHDC1 (YTH N6-methyladenosine RNA binding protein C1): #1 -1.03 inactive; #2 -0.336 inactive; #3 -0.908 inactive
MED4 (mediator complex subunit 4): #1 0.417 inactive; #2 0.288 inactive; #3 -2.34 inactive
